# Test results published in PubChem BioAssay AID2685 (National Center for Advancing Translational Sciences (NCATS), 2010).
# Some of the results follow. Shown are side measurements of this screen, not its main read-out; they come without a call. Most of these compounds were active or inconclusive in the main read-out, so they are no random draw. The note in brackets gives the kind of curve behind each potency; many fits are weak.
# Test: qHTS Assay for Lipid Storage Modulators in Drosophila S3 Cells;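 for cell number change: cells counted by Cell Tracker Red CMTPX staining in the red channel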
# Conditions: BODIPY lipid droplet fluorescence, 18-24 h; for cell number change: measured here: cell count max response, cells fed with added oleic acid
# Method in brief: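 Drosophila S3 cells got compounds at several concentrations plus oleic acid (400 uM solution). Laser-scanning cytometry with 488 nm excitation read lipid droplets at 500-530 nm and cells at 575-640 nm. Percent activity was relative to 20 uM Triacsin C.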
# [1] = measured here: lipid fluorescence (Fed channel) AC50, cells fed with added oleic acid
# [2] = measured here: cell number channel AC50, cells fed with added oleic acid
compound,measurement,setting,value
CCN(CC)S(=O)(=O)c1cc(C(=O)N(C)CC(=O)Nc2ccc(Cl)cc2)ccc1Cl,cell number change,,27.2%
same,AC50,[1],"8.2 µM [rising, partial curve]"
CCCCn1c(N)c(N(CCOC)C(=O)CSc2n[nH]c(-c3ccc(OC)cc3)n2)c(=O)[nH]c1=O,cell number change,,25.8%
CN(Cc1ccccc1)C(=O)c1ccc(NC(=O)Cc2cccc(NC(=O)C3CCN(C(=O)C4CCC4)CC3)c2)cc1,cell number change,,0.798%
O=C(CSc1nnc(C2COc3ccccc3O2)o1)Nc1ccc(F)cc1Cl (stereo not drawn),cell number change,,17.2%
same,AC50,[2],"0.326 µM [rising, full curve]"
same,AC50,[1],"0.92 µM [rising, full curve]"
Clc1ccc(C#Cc2cccnc2)cc1,cell number change,,-33.4%
same,AC50,[2],"16.4 µM [falling, single point]"
N#C/C(=C\c1c(F)cccc1Cl)C(=O)NC1CC1,cell number change,,2.7%
same,AC50,[1],"6.51 µM [falling, single point]"
Fc1ccccc1CNc1ncnc2sccc12,cell number change,,24.3%
O=C(COC(=O)c1ccc(F)c(S(=O)(=O)N2CCOCC2)c1)Nc1ccc2[nH]c(=O)[nH]c2c1,cell number change,,-4.65%
CC(=O)N1CCN(C(=S)NC(=O)c2ccc(S(=O)(=O)N3CCOCC3)cc2)CC1,cell number change,,-33.3%
same,AC50,[2],"0.82 µM [falling, full curve, poor fit]"
same,AC50,[1],"0.92 µM [rising, partial curve, poor fit]"
O=C(CS(=O)CC(=O)Nc1cnc2ccccc2c1)Nc1ccc(Cl)cc1 (stereo not drawn),cell number change,,25.2%
same,AC50,[2],"0.231 µM [rising, full curve, poor fit]"
COc1ccc(CC(=O)NCc2ccc3c(c2)OCO3)cc1,cell number change,,24.7%
same,AC50,[1],"0.0058 µM [rising, full curve, poor fit]"
Nc1ccc(Br)c2c1C(=O)c1ccccc1C2=O,cell number change,,-36%
same,AC50,[2],"18.4 µM [falling, partial curve]"
same,AC50,[1],"29.1 µM [falling, single point]"
COc1ccc(C=O)cc1COc1ccc2c(c1)OCO2,cell number change,,2.49%
same,AC50,[1],"0.00517 µM [rising, full curve, poor fit]"
CCCn1c(=O)c2ccccc2n2c(SCC(=O)c3ccc(CC)cc3)nnc12,cell number change,,17.9%
same,AC50,[1],"4.61 µM [rising, partial curve, poor fit]"
CN(CC(=O)Nc1ccccc1Br)C(=O)c1cc2c(s1)CCCCC2,cell number change,,26.8%
Cc1nn(CC(=O)O)c(=O)c2ccccc12,AC50,[1],"16.4 µM [falling, partial curve]"
C/C(CC(=O)Nc1ccc(Cl)cn1)=N\NC(=O)Cc1cccs1,cell number change,,8.54%
same,AC50,[1],"4.61 µM [falling, single point]"
CC(=O)N1[C@H](Cc2ccccc2)C=C[C@]1(C)C(=O)NCCc1c[nH]c2ccccc12,cell number change,,20.5%
same,AC50,[1],"9.2 µM [rising, partial curve, poor fit]"
COc1ccc2[nH]c(C(=O)N3CCN(Cc4ccccc4)CC3)cc2c1OC,cell number change,,-0.59%
C=CCN1C(=O)C(C)(C)N(C(C)=O)c2ccccc21,cell number change,,-5.28%
same,AC50,[1],"29.1 µM [falling, single point]"
COc1ccc2ccn(C)c2c1,cell number change,,2.03%
same,AC50,[1],"9.2 µM [rising, single point]"
COc1cc(OC)c(C2=NOC(C(=O)NCc3ccc4c(c3)OCO4)C2)cc1Cl (stereo not drawn),cell number change,,152%
same,AC50,[2],"9.2 µM [rising, partial curve]"
same,AC50,[1],"18.4 µM [rising, partial curve]"
COc1ccc(NC(=O)CC2SC(=NCc3ccccc3OC)NC2=O)cc1 (stereo not drawn),cell number change,,-11.4%
O=C(NNc1nc(-c2ccccc2)c2cc(Br)ccc2n1)c1ccc(S(=O)(=O)N2CCOCC2)cc1,cell number change,,21.2%
CN(Cc1cccc(Cl)c1Cl)c1ccc(S(=O)(=O)N2CCCCC2)cc1[N+](=O)[O-],cell number change,,-6.36%
same,AC50,[1],"13 µM [rising, partial curve]"
C=CCn1c(SCc2c(C)noc2C)nc2sc(C)c(C)c2c1=O,cell number change,,176%
same,AC50,[2],"4.61 µM [rising, full curve]"
same,AC50,[1],"20.6 µM [rising, partial curve]"
CCOc1ccc(-n2c(SCC(=O)Nc3cc(C)on3)nnc2-c2c[nH]c3ccccc23)cc1,cell number change,,84.4%
same,AC50,[2],"2.31 µM [rising, full curve]"
same,AC50,[1],"4.11 µM [rising, partial curve]"
O=[N+]([O-])c1ccc(N2CCN(c3ccc(O)cc3)CC2)c(Cl)c1,cell number change,,-18.3%
same,AC50,[1],"2.59 µM [falling, full curve]"
CCn1c(-c2ccc(C(C)(C)C)cc2)n[nH]c1=S,cell number change,,12.9%
same,AC50,[1],"29.1 µM [rising, single point]"
O=C(NCc1ccccn1)c1ccccc1OCc1ccc(F)cc1,cell number change,,-2.41%
COc1ccc(NC(=O)CN(C)C(=O)Cc2c[nH]c3ccccc23)cc1,cell number change,,0.995%
same,AC50,[2],"0.82 µM [falling, full curve, poor fit]"
same,AC50,[1],"14.6 µM [falling, partial curve]"
COCc1cc(=O)[nH]c(/N=C(\N)Nc2ccc(Oc3ccccc3)cc2)n1,cell number change,,-18.8%
same,AC50,[1],"6.51 µM [falling, full curve, poor fit]"
C=CCOc1c(OC)cc(Cl)cc1C1NC(=O)NC(C)=C1C(C)=O (stereo not drawn),cell number change,,2.93%
same,AC50,[1],"6.51 µM [rising, single point]"
O=C(O)CCNC(=O)OCC1c2ccccc2-c2ccccc21,cell number change,,-13%
same,AC50,[1],"0.517 µM [falling, full curve, poor fit]"
COc1cccc(-c2nnc(-c3ccco3)o2)c1,cell number change,,-11.8%
COCCCNS(=O)(=O)c1ccc2c(c1)CCN2C(C)=O,cell number change,,0.748%
same,AC50,[1],"0.517 µM [falling, single point]"
COc1cccc(-c2[nH]nc3c2C(c2ccc(C)o2)C(C#N)=C(N)O3)c1 (stereo not drawn),cell number change,,-52%
same,AC50,[2],"14.6 µM [falling, partial curve, poor fit]"
Cc1nnc(SCC(=O)NC2CCCCC2)[nH]c1=O,cell number change,,-11.8%
O=C(CC1OCC2CCCN2C1=O)Nc1ccc([N+](=O)[O-])cc1 (stereo not drawn),cell number change,,2.1%
O=C(NCc1ccc(Cl)cc1)c1n[nH]c([N+](=O)[O-])c1Cl,cell number change,,24.8%
same,AC50,[2],"3.26 µM [falling, single point]"
Oc1c(C(c2ccc(Cl)cc2)N2CCCC2)cc(Cl)c2cccnc12 (stereo not drawn),AC50,[1],"0.58 µM [rising, single point]"
O=C(Nc1cc(Cl)cc(Cl)c1)c1cnn2cccnc12,cell number change,,46.7%
same,AC50,[2],"0.146 µM [rising, full curve]"
same,AC50,[1],"2.59 µM [rising, partial curve, poor fit]"
COc1cc(/C=C2\C(=N)N3N=CSC3=NC2=O)cc(Br)c1OC(=O)c1ccco1,cell number change,,8.36%
same,AC50,[2],"0.146 µM [falling, full curve, poor fit]"
CCn1c(SCC(=O)N2CCN(c3ccccc3)CC2)nnc1-c1ccoc1C,cell number change,,28%
same,AC50,[1],"0.231 µM [falling, full curve]"
O=C(c1ccc(Cl)s1)N1CCN(c2nc3ccccc3s2)CC1,cell number change,,-0.187%
same,AC50,[1],"18.4 µM [falling, single point]"
COC(=O)C1C(=O)c2c([nH]c(C(=O)OCCOC(C)C)c2C)CC1C (stereo not drawn),cell number change,,62.5%
same,AC50,[2],"7.31 µM [rising, partial curve]"
same,AC50,[1],"1.46 µM [rising, full curve]"
O=c1c2ccccc2c2ccccc2c(=O)n1Cc1ccco1,cell number change,,0.339%
CC1C/C(=N/Nc2nc3ccccc3[nH]2)CC(C)(C)C1 (stereo not drawn),cell number change,,-24.8%
Cc1cccc(C)c1Nc1nnc(SCC(=O)Nc2sccc2C#N)s1,cell number change,,5.55%
same,AC50,[1],"20.6 µM [rising, partial curve]"
O=C(O)C1C2C=CC3(CN(Cc4ccco4)C(=O)C13)O2 (stereo not drawn),cell number change,,33.3%
same,AC50,[1],"4.11 µM [rising, single point]"
Cc1cc(C)cc(NC(=O)c2ccc(CN3CCc4ccccc4C3)cc2)c1,cell number change,,-13.4%
CCOC(=O)C1CCN(S(=O)(=O)c2ccc3c4c2CC(=O)N4CC(C)S3)CC1 (stereo not drawn),cell number change,,7.49%
same,AC50,[2],"1.46 µM [rising, partial curve, poor fit]"
CCOC(=O)COc1ccc(C(=O)NC2CCCCC2)cc1,cell number change,,-191%
same,AC50,[2],"5.8 µM [falling, full curve]"
same,AC50,[1],"3.66 µM [falling, full curve]"
Cc1ccc(C(=O)N/C(=C\c2ccco2)C(=O)NCCCn2ccnc2)cc1C,AC50,[2],"2.91 µM [rising, single point]"
same,AC50,[1],"3.26 µM [rising, single point]"
CC(=O)c1ccc(C)cc1OC(=O)c1cccc(F)c1,cell number change,,-13.2%
same,AC50,[2],"2.31 µM [falling, single point]"
COc1ccc(C(CC(=O)Nc2ccc(C)cn2)N2Cc3ccccc3C2=O)cc1 (stereo not drawn),AC50,[1],"0.651 µM [rising, single point]"
COc1ccc2oc(C)c(C(=O)c3ccc(C)cc3)c2c1,cell number change,,7.8%
Cc1ccc(NC2c3ncccc3C(=O)N2Cc2cccs2)cc1C (stereo not drawn),cell number change,,-22.7%
same,AC50,[1],"29.1 µM [falling, single point]"
CCOC(=O)C1CCCN(C(=O)c2c(-c3ccccc3Cl)noc2C)C1 (stereo not drawn),cell number change,,59%
same,AC50,[2],"16.4 µM [rising, single point]"
C(=N\c1nc2ccccc2[nH]1)/c1cccs1,cell number change,,2.43%
same,AC50,[1],"3.26 µM [falling, single point]"
ClCc1csc(-c2ccc(Cl)cc2)n1,cell number change,,19.8%
same,AC50,[1],"0.092 µM [rising, full curve, poor fit]"
CC1CCCN(S(=O)(=O)c2ccc(NC(=O)CN3CCN(C)CC3)cc2)C1 (stereo not drawn),cell number change,,24.3%
same,AC50,[1],"29.1 µM [rising, single point]"
CCOC(=O)N1CCN(CC(O)COc2ccc(OC)cc2C(C)(C)C)CC1 (stereo not drawn),cell number change,,-30.1%
same,AC50,[2],"18.4 µM [falling, single point]"
same,AC50,[1],"29.1 µM [falling, partial curve, poor fit]"

# Reformatted: entries from further up.
compound	measurement	setting	value
C=CCN1C(=O)C(C)(C)N(C(C)=O)c2ccccc21	AC50	[1]	29.1 µM [falling, single point]
COc1ccc2ccn(C)c2c1	cell number change		2.03%
same	AC50	[1]	9.2 µM [rising, single point]

# For convenience, part of the list above:
compound,measurement,setting,value
COc1cc(/C=C2\C(=N)N3N=CSC3=NC2=O)cc(Br)c1OC(=O)c1ccco1,AC50,[2],"0.146 µM [falling, full curve, poor fit]"
CCn1c(SCC(=O)N2CCN(c3ccccc3)CC2)nnc1-c1ccoc1C,cell number change,,28%
same,AC50,[1],"0.231 µM [falling, full curve]"

# Part of the list above, tab-delimited:
compound	measurement	setting	value
CCOC(=O)N1CCN(CC(O)COc2ccc(OC)cc2C(C)(C)C)CC1 (stereo not drawn)	cell number change		-30.1%
same	AC50	[2]	18.4 µM [falling, single point]
same	AC50	[1]	29.1 µM [falling, partial curve, poor fit]
